The record followed here is patent CN114316057A.

In test [1] the target is T1, TOM20-Mouse 胞质结构域 (mouse) (UniProt Q9DCC8).
T1 sequence (looked up): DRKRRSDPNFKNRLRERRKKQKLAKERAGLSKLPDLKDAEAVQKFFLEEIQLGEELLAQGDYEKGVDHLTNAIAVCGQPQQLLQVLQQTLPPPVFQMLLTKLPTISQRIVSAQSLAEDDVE
Description: SPR (Biacore).

Test [2] concerns the target T1, TOM20-Mouse 胞质结构域 (mouse). Description: Biacore (Figure 3C legend). For orientation: Surface plasmon resonance follows binding to a sensor surface in real time, without labels.

Results are given in words; binding and its absence hold for the method and conditions named. Some results given as binding are weak or reduced against the parent protein; the word gives no strength.

B1: P2B7号纳米抗体 (VHH, not shown: large carriers)
VHH: AVQLVESGGGLVQAGGSLRLSCVASGSTFSNFVMGWYRQAPGKQRVLVATISSGGSTNYADSVKGRFTISRDNTKNTVYLQMNSLKPEDTSVYYCNARRGSVIVPTLAYDYWGQGTQVTVSS
For B1, the binding result in test [1] and in test [2] was “binds” each time.
